# The other results are listed elsewhere or left out.
# Protein sequences, listed by entry. Tags and fused reporters are not part of them. Lines headed by an entry give the natural chain unless they say otherwise; changes in a name come on top.
# UniProt Q9NVC6: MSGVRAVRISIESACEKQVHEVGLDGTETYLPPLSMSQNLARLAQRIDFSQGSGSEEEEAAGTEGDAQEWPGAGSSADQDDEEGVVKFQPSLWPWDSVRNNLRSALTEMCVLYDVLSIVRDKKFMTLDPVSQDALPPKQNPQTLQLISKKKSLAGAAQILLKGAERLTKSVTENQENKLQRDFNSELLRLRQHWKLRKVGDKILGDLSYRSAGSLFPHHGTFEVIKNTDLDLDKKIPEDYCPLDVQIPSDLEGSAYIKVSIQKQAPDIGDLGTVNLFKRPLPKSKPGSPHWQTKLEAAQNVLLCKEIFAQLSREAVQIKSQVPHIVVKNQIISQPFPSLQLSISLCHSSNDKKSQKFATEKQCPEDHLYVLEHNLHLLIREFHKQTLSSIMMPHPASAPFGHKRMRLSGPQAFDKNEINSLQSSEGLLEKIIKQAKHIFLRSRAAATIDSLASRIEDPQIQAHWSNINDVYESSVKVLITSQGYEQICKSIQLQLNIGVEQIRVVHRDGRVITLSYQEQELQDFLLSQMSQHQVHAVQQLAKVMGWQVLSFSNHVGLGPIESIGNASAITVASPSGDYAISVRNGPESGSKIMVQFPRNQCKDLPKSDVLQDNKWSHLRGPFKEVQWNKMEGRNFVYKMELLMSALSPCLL
# UniProt Q15528: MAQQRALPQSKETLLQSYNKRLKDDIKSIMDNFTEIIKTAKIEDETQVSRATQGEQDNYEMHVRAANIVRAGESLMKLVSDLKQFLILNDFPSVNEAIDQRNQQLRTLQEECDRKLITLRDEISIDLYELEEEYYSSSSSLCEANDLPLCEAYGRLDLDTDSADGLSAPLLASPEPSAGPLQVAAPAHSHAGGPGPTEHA
# UniProt O95140: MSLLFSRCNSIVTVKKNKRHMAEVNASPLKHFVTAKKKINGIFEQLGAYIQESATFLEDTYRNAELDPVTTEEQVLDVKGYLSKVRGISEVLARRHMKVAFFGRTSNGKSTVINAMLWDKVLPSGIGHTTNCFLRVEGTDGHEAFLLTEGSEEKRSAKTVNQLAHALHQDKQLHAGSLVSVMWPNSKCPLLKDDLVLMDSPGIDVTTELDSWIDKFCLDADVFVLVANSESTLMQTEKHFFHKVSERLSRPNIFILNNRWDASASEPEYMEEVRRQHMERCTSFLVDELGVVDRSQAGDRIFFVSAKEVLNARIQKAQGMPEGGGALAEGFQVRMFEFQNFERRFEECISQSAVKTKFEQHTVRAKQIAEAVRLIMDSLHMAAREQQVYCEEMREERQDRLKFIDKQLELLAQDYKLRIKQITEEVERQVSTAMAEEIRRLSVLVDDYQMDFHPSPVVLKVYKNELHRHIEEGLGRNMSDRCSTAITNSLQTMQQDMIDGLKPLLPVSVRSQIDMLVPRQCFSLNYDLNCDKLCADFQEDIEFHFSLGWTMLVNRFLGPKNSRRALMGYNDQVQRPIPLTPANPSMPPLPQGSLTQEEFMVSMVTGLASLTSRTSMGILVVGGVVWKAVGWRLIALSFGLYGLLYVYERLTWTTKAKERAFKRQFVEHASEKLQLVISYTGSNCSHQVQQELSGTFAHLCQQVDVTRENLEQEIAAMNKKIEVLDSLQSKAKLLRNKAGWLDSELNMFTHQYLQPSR
# UniProt Q9GZY8: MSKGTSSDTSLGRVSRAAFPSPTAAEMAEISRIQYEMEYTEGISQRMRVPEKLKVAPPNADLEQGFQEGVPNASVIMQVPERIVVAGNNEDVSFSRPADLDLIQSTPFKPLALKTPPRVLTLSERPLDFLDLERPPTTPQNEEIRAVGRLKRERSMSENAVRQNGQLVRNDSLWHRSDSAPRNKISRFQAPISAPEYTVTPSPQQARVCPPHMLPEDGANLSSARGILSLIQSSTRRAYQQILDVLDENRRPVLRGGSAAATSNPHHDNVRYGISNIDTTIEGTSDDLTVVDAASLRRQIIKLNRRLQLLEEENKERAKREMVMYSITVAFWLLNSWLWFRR
# UniProt Q71SY5: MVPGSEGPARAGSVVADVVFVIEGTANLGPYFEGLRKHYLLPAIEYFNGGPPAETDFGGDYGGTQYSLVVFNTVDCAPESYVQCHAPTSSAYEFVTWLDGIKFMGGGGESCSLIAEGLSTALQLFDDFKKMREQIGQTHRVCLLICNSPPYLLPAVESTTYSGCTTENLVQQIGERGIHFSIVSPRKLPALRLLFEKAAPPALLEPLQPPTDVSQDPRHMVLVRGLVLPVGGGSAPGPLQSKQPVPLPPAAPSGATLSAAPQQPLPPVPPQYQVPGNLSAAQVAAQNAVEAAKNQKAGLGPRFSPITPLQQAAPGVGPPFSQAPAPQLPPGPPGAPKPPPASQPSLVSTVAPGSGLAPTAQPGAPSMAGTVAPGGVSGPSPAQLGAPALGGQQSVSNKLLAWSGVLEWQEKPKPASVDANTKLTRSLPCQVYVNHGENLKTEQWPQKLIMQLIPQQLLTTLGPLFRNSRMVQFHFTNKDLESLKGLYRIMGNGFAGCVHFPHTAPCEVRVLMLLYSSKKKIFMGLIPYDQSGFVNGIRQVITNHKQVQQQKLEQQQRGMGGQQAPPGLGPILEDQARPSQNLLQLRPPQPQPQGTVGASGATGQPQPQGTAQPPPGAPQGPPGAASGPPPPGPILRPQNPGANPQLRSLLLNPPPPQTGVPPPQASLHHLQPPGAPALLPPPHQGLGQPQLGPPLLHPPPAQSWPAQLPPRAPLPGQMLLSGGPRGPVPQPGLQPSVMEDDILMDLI
# UniProt Q6ZSS7: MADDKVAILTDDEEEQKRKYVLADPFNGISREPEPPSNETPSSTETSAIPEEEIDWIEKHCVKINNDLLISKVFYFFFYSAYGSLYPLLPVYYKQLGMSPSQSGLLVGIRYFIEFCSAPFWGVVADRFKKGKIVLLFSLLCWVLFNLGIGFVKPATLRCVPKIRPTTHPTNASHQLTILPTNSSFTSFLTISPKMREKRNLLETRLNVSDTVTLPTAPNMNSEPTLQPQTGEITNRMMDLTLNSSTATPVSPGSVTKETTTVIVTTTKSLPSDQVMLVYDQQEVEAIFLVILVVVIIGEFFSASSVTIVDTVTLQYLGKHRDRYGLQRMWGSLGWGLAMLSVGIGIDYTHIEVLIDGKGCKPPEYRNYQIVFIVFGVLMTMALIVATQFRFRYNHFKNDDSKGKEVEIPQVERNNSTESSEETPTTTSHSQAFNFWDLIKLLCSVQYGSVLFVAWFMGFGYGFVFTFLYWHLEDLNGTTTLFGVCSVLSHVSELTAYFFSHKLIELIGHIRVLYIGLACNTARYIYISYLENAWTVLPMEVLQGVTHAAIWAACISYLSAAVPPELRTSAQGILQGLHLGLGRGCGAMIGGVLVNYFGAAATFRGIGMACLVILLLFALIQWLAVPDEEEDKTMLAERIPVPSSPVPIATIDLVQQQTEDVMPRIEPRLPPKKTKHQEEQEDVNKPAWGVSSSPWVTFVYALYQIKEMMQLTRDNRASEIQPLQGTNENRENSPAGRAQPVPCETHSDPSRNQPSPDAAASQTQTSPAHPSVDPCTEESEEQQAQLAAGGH
# UniProt Q6UB28: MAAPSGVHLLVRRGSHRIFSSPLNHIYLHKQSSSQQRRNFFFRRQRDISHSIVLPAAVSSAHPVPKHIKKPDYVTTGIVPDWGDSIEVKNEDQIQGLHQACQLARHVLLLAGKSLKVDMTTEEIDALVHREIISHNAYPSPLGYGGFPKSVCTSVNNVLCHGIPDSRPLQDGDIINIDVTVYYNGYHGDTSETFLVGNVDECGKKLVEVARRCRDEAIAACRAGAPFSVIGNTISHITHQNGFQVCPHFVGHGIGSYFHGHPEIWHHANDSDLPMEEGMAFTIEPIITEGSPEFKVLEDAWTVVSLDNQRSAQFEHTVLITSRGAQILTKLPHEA
# UniProt Q6NUT3: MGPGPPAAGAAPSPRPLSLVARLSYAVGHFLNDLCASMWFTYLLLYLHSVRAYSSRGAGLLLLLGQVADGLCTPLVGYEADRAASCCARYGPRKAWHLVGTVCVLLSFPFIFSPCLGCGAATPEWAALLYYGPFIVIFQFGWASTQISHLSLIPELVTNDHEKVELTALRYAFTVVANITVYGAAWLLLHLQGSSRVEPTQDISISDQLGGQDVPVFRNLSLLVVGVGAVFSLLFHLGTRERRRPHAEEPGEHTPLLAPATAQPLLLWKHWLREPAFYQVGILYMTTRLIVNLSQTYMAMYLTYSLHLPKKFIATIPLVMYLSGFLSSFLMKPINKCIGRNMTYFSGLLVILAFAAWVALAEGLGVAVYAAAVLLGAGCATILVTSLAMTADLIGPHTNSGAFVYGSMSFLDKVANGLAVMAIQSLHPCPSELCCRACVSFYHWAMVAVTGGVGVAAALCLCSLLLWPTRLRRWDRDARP
# UniProt Q07820, whole entry, looked up: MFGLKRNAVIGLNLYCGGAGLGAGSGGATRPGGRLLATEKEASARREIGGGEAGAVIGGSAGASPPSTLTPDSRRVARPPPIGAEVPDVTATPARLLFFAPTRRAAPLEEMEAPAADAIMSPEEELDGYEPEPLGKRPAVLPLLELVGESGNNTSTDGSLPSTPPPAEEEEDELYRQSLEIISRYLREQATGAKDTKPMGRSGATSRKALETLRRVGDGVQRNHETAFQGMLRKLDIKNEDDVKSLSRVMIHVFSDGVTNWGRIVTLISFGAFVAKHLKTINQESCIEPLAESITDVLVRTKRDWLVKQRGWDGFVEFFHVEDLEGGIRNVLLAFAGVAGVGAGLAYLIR
# UniProt O43513: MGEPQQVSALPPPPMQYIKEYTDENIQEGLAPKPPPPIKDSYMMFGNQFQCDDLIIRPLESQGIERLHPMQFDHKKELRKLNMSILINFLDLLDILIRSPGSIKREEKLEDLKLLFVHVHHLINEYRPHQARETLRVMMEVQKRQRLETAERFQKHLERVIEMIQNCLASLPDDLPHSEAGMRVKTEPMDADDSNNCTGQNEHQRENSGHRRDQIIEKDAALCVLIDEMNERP
# UniProt Q96PC5: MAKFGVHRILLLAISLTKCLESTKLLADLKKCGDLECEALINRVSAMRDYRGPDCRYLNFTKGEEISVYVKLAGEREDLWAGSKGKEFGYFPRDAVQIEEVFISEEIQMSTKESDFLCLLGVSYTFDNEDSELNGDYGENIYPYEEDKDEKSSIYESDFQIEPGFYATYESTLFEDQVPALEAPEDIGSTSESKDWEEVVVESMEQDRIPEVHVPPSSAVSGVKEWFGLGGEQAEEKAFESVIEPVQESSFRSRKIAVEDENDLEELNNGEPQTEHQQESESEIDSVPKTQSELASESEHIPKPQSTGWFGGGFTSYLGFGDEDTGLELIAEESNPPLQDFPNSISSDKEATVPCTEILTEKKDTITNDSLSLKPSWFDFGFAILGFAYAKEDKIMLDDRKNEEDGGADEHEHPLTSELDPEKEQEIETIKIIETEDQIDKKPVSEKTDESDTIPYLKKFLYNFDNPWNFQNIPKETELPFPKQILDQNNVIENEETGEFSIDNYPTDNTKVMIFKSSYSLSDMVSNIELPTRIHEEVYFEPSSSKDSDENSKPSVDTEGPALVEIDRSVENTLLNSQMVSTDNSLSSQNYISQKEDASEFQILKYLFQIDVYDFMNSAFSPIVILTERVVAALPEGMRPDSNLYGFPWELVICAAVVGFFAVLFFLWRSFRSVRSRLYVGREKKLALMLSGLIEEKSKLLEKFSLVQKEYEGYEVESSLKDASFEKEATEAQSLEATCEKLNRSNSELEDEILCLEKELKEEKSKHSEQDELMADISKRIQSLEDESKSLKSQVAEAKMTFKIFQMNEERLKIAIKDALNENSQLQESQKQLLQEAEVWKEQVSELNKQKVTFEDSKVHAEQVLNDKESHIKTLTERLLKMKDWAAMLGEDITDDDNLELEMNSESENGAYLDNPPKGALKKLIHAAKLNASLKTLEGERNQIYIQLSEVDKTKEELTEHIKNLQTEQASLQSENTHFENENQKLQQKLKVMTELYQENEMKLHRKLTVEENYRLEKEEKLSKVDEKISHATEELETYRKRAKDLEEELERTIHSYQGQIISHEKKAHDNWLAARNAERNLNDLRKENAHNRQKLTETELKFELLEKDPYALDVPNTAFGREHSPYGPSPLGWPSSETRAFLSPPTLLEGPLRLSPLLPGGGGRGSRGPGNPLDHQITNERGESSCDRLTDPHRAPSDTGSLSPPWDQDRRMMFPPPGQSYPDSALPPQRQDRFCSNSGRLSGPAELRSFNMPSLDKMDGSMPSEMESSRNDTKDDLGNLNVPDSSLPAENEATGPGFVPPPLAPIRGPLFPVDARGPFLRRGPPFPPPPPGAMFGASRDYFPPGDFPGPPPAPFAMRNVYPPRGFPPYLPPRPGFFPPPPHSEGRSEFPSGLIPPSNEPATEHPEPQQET
# Key:
# Experiment in all cases: log2 fold change, soluble protein after heating vs DMSO (PISA); higher = thermal stabilisation; K562 cells, 10 uM, 30 min; active = over 0.2 and 3.5 SD of the protein, either way, in both replicates (recomputed)
# saracatinib = compound: CN1CCN(CCOc2cc(OC3CCOCC3)c3c(Nc4c(Cl)ccc5c4OCO5)ncnc3c2)CC1 [saracatinib]
# In short: (§1)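 Thermal stability values are relative to control samples and come from duplicates. They are expressed as log2 fold changes. For measurement, K562 cells (2×10^6 cells/mL) received 10 μM compound for 30 min, and aliquots were heated for 3 min over 48°C-58°C, pooled, and extracted at 4°C in PBS with 0.5% NP-40. Soluble protein, the supernatant after 21,000xg for 90 min, was quantified by TMTpro 16plex LC-MS/MS with equalised channel sums.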
# sotrastaurin = compound: CN1CCN(c2nc(C3=C(c4c[nH]c5ccccc45)C(=O)NC3=O)c3ccccc3n2)CC1 [sotrastaurin]
# In short: as §1
# Tubastatin A = compound: CN1CCc2c(c3ccccc3n2Cc2ccc(C(=O)NO)cc2)C1 [Tubastatin A]
# In short: as §1
# [1] = compound: CNC(=O)C1=CC=CC=C1NC2=NC(=NC=C2Cl)NC3=C(C=C(C=C3)N4CCOCC4)OC
# In short: as §1
# defactinib = compound: CNC(=O)c1ccc(Nc2ncc(C(F)(F)F)c(NCc3nccnc3N(C)S(C)(=O)=O)n2)cc1 [defactinib]
# In short: as §1
# rucaparib = compound: CNCc1ccc(-c2[nH]c3cc(F)cc4c3c2CCNC4=O)cc1 [rucaparib]
# In short: as §1
# [2] = compound: CNc1nc(-c2ccc3c(N)n[nH]c3c2)cc(N2C[C@@H](C(=O)NC3CCCCC3)CC[C@H]2C)n1
# In short: as §1
# encorafenib = compound: COC(=O)N[C@@H](C)CNc1nccc(-c2cn(C(C)C)nc2-c2cc(Cl)cc(NS(C)(=O)=O)c2F)n1 [encorafenib]
# In short: as §1
# [3] = compound: COC(=O)[C@H](CCSC)NC(=O)C1=C(C=C(C=C1)NC[C@H](CS)N)C2=CC=CC=C2
# In short: as §1
# [4] = compound: COC1=CC=C(C=C1)CN2C=CC3=C2C=C(C=C3)C(=O)NO
# In short: as §1
# filanesib = compound: CON(C)C(=O)N1N=C(c2cc(F)ccc2F)S[C@@]1(CCCN)c1ccccc1 [filanesib]
# In short: as §1
# zotarolimus = compound: CO[C@H]1C[C@@H]2CC[C@@H](C)[C@@](O)(O2)C(=O)C(=O)N2CCCC[C@H]2C(=O)O[C@H]([C@H](C)C[C@@H]2CC[C@H](n3cnnn3)[C@H](OC)C2)CC(=O)[C@H](C)/C=C(\C)[C@@H](O)[C@@H](OC)C(=O)[C@H](C)C[C@H](C)/C=C/C=C/C=C/1C [zotarolimus]
# In short: as §1
# idasanutlin = compound: COc1cc(C(=O)O)ccc1NC(=O)[C@@H]1N[C@@H](CC(C)(C)C)[C@](C#N)(c2ccc(Cl)cc2F)[C@H]1c1cccc(Cl)c1F [idasanutlin]
# In short: as §1
# alisertib = compound: COc1cc(Nc2ncc3c(n2)-c2ccc(Cl)cc2C(c2c(F)cccc2OC)=NC3)ccc1C(=O)O [alisertib]
# In short: as §1
# [5] = compound: COc1cc2nc(-c3cc(F)ccc3O)nc(N[C@@H]3CNC[C@H]3C(C)(C)O)c2cc1OC
# In short: as §1
# gefitinib = compound: COc1cc2ncnc(Nc3ccc(F)c(Cl)c3)c2cc1OCCCN1CCOCC1 [gefitinib]
# In short: as §1
# [6] = compound: COc1cccc2cc(-c3nc([C@H]4CC[C@H](C(=O)O)CC4)n4ncnc(N)c34)[nH]c12
# In short: as §1
# lapatinib = compound: CS(=O)(=O)CCNCc1ccc(-c2ccc3ncnc(Nc4ccc(OCc5cccc(F)c5)c(Cl)c4)c3c2)o1 [lapatinib]
# In short: as §1
# pictilisib = compound: CS(=O)(=O)N1CCN(Cc2cc3nc(-c4cccc5[nH]ncc45)nc(N4CCOCC4)c3s2)CC1 [pictilisib]
# In short: as §1
# alvocidib = compound: CN1CC[C@H](c2c(O)cc(O)c3c(=O)cc(-c4ccccc4Cl)oc23)[C@H](O)C1 [alvocidib]
# In short: as §1
Target,log2 fold change (saracatinib),log2 fold change (sotrastaurin),log2 fold change (Tubastatin A),log2 fold change [1],log2 fold change (defactinib),log2 fold change (rucaparib),log2 fold change [2],log2 fold change (encorafenib),log2 fold change [3],log2 fold change [4],log2 fold change (filanesib),log2 fold change (zotarolimus),log2 fold change (idasanutlin),log2 fold change (alisertib),log2 fold change [5],log2 fold change (gefitinib),log2 fold change [6],log2 fold change (lapatinib),log2 fold change (pictilisib),log2 fold change (alvocidib)
MED17 (UniProt Q9NVC6),inactive: -0.063,inactive: -0.145,inactive: 0.009,inactive: -0.049,inactive: -0.021,inactive: 0.109,inactive: 0.031,inactive: -0.081,inactive: 0.055,inactive: 0.004,inactive: 0.019,inactive: -0.052,inactive: 0.166,inactive: -0.08,inactive: 0.044,inactive: 0.016,inactive: -0.018,inactive: -0.063,inactive: 0.089,
MED22 (UniProt Q15528),inactive: -0.089,inactive: -0.007,inactive: 0.332,inactive: -0.051,inactive: -0.043,inactive: 0.021,inactive: 0.044,inactive: 0.12,inactive: 0.097,inactive: -0.03,inactive: -0.008,inactive: 0.047,inactive: -0.023,inactive: 0.019,,inactive: 0.017,inactive: -0.171,,,
MASTL (UniProt Q96GX5),inactive: 0.107,inactive: -0.12,,inactive: 0.054,inactive: 0.037,inactive: -0.17,inactive: -0.055,inactive: 0.083,inactive: 0.079,inactive: 0.147,inactive: -0.09,inactive: 0.088,inactive: 0.072,inactive: -0.09,,inactive: -0.107,inactive: -0.155,,,
MEAK7 (UniProt Q6P9B6),inactive: 0.043,inactive: -0.004,inactive: 0.028,inactive: -0.088,inactive: -0.041,inactive: 0.008,inactive: 0.026,inactive: 0.02,inactive: 0.088,inactive: -0.046,inactive: -0.109,inactive: -0.002,inactive: -0.013,inactive: -0.012,inactive: -0.101,inactive: -0.142,inactive: -0.055,inactive: 0.087,inactive: -0.063,
MFN2 (UniProt O95140),inactive: -0.005,inactive: 0.045,inactive: 0.02,inactive: -0.024,inactive: -0.066,inactive: 0.041,inactive: 0.058,inactive: -0.006,inactive: -0.026,inactive: 0.04,inactive: -0.112,inactive: 0.016,inactive: 0,inactive: -0.043,active: -0.438,inactive: 0.01,inactive: -0.006,inactive: 0.027,inactive: -0.058,
MFF (UniProt Q9GZY8),inactive: 0.003,inactive: -0.027,inactive: 0.012,inactive: -0.127,inactive: -0.025,inactive: -0.059,inactive: -0.078,inactive: 0.015,inactive: 0.092,inactive: 0.038,inactive: 0.075,inactive: -0.022,inactive: 0.053,inactive: 0.024,inactive: -0.141,inactive: 0.012,inactive: 0.128,inactive: -0.061,inactive: 0.103,
MED25 isoform 3 (UniProt Q71SY5),inactive: -0.079,inactive: 0.031,inactive: -0.042,inactive: -0.014,inactive: -0.045,inactive: 0.104,inactive: 0.036,inactive: 0.083,inactive: -0.111,inactive: -0.015,inactive: -0.018,inactive: 0.136,inactive: 0.004,inactive: 0.048,inactive: -0.01,inactive: 0.093,inactive: -0.285,inactive: -0.03,inactive: 0.103,
MFSD6 (UniProt Q6ZSS7),inactive: -0.087,inactive: -0.072,,inactive: 0.157,inactive: 0.031,,inactive: -0.088,,inactive: -0.014,,inactive: 0.082,inactive: -0.042,inactive: -0.212,inactive: 0.106,,inactive: 0.187,inactive: 0.022,,inactive: 0.125,inactive: -0.152
METAP1D (UniProt Q6UB28),inactive: 0.088,inactive: -0.042,inactive: -0.181,inactive: 0.036,inactive: 0.013,inactive: -0.074,inactive: 0.04,inactive: 0.006,inactive: 0.006,active: 0.342,inactive: -0.097,inactive: 0.054,inactive: 0.079,inactive: -0.085,inactive: 0.021,inactive: -0.029,inactive: -0.035,inactive: -0.062,,
MFSD12 isoform 3 (UniProt Q6NUT3),inactive: -0.154,inactive: -0.172,inactive: 0.031,inactive: 0.042,,inactive: -0.14,inactive: -0.144,inactive: 0.196,,,inactive: -0.197,inactive: 0.024,inactive: -0.097,,,,,,inactive: 0.069,
MCUR1 (UniProt Q96AQ8),inactive: -0.002,inactive: 0.053,inactive: 0.014,inactive: 0.014,inactive: -0.047,inactive: -0.038,inactive: 0.014,inactive: -0.009,inactive: -0.028,inactive: -0.042,inactive: 0.019,inactive: -0.002,inactive: -0.13,inactive: 0.009,inactive: 0.181,inactive: 0.009,inactive: 0.052,inactive: -0.009,inactive: 0.087,
MCL1 (UniProt Q07820),inactive: 0.011,inactive: -0.114,inactive: 0.268,inactive: -0.022,inactive: -0.015,inactive: 0.029,inactive: -0.063,inactive: 0.004,inactive: 0.047,inactive: -0.092,inactive: 0.029,inactive: 0.093,inactive: 0.145,inactive: -0.12,active: -0.442,inactive: -0.18,inactive: 0.055,inactive: -0.249,inactive: -0.026,
MED12 isoform 2 (UniProt Q93074),inactive: 0.072,inactive: -0.09,inactive: 0.32,inactive: 0.303,,inactive: 0.137,inactive: 0.102,inactive: 0.145,,inactive: 0.093,inactive: 0.256,,inactive: 0.103,inactive: 0.214,inactive: -0.09,inactive: 0.024,inactive: 0.007,inactive: 0.028,inactive: -0.113,
MCCC2 (UniProt Q9HCC0),inactive: 0.033,inactive: 0.018,inactive: 0.004,active: -0.274,inactive: 0.008,inactive: 0.012,inactive: -0.05,inactive: -0.033,inactive: -0.003,inactive: 0.137,inactive: -0.07,inactive: 0,inactive: -0.033,inactive: -0.057,inactive: -0.022,inactive: 0.006,inactive: 0.083,inactive: 0.001,inactive: -0.031,
MDN1 (UniProt Q9NU22),inactive: -0.029,inactive: -0.035,inactive: 0.033,inactive: -0.092,inactive: -0.166,inactive: -0.067,inactive: 0.018,inactive: 0.018,inactive: -0.049,inactive: 0.066,inactive: -0.095,inactive: -0.002,inactive: -0.058,inactive: -0.056,inactive: -0.031,inactive: -0.003,inactive: 0.022,inactive: -0.005,inactive: 0.001,
MED7 (UniProt O43513),inactive: -0.026,inactive: 0.151,inactive: -0.145,inactive: -0.056,inactive: -0.015,,inactive: -0.006,,inactive: 0.012,inactive: -0.021,inactive: -0.01,inactive: 0.07,inactive: -0.159,,inactive: -0.049,inactive: -0.022,,inactive: -0.116,,
MIA2 (UniProt Q96PC5),inactive: 0.003,inactive: -0.106,inactive: -0.013,inactive: 0.021,inactive: -0.085,inactive: 0.074,inactive: -0.001,inactive: 0.07,inactive: 0.037,inactive: -0.017,inactive: 0.121,inactive: 0.037,inactive: -0.017,inactive: 0.069,inactive: 0.027,inactive: 0.034,inactive: -0.109,inactive: 0.029,inactive: -0.019,
MFN1 (UniProt Q8IWA4),inactive: -0.029,inactive: 0.016,inactive: 0.025,inactive: -0.019,inactive: -0.074,inactive: -0.015,inactive: 0.023,inactive: 0.038,inactive: 0,inactive: 0.042,inactive: -0.182,inactive: 0.06,inactive: 0.034,inactive: 0.262,active: -0.523,inactive: 0.017,inactive: 0.03,inactive: 0.002,inactive: 0.024,

# Random excerpt: 2 entries already listed.
Target,log2 fold change (saracatinib),log2 fold change (sotrastaurin),log2 fold change (Tubastatin A),log2 fold change [1],log2 fold change (defactinib),log2 fold change (rucaparib),log2 fold change [2],log2 fold change (encorafenib),log2 fold change [3],log2 fold change [4],log2 fold change (filanesib),log2 fold change (zotarolimus),log2 fold change (idasanutlin),log2 fold change (alisertib),log2 fold change [5],log2 fold change (gefitinib),log2 fold change [6],log2 fold change (lapatinib),log2 fold change (pictilisib),log2 fold change (alvocidib)
MFSD12 isoform 3 (UniProt Q6NUT3),inactive: -0.154,inactive: -0.172,inactive: 0.031,inactive: 0.042,,inactive: -0.14,inactive: -0.144,inactive: 0.196,,,inactive: -0.197,inactive: 0.024,inactive: -0.097,,,,,,inactive: 0.069,
MED25 isoform 3 (UniProt Q71SY5),inactive: -0.079,inactive: 0.031,inactive: -0.042,inactive: -0.014,inactive: -0.045,inactive: 0.104,inactive: 0.036,inactive: 0.083,inactive: -0.111,inactive: -0.015,inactive: -0.018,inactive: 0.136,inactive: 0.004,inactive: 0.048,inactive: -0.01,inactive: 0.093,inactive: -0.285,inactive: -0.03,inactive: 0.103,

# Source: the supplement of paper PMC10849652
